Assay results published in PubChem BioAssay AID2685 (National Center for Advancing Translational Sciences (NCATS), 2010).
The whole screen tested about 320,000 compounds, of which about 2,100 (0.66%) were called active. The shares of active, inactive and inconclusive entries below differ from those in the screen. Calls come from the whole dose curve; as a rule, active = well fitted inhibition curve with a large enough effect in the signal ratio, with a control signal flat (not every such curve was filed as active); inconclusive = small, poorly fitted or top-dose-only effect, or effect the other way, or a change in a side signal; inactive = flat fitted curve, though single readings scatter; the % refers to the signal ratio. A potency beside an inconclusive call is a rough fit, not a confirmed value.

assay: qHTS Assay for Lipid Storage Modulators in Drosophila S3 Cells; settings: BODIPY lipid droplet fluorescence, 18-24 h, cells fed with added oleic acid; lipid storage change, negative = inhibition: at 46.1 µM (top of the series) unless noted
How it was run: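 Drosophila S3 cells loaded with oleic acid (400 uM, as added) and compounds at several concentrations; lipid droplets imaged by 488-nm laser-scanning cytometry, 500–530 nm intensity and object ratio to cell channel. Percent activity normalized to 20 uM Triacsin C.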
% is set by controls: 0 for no effect and ±100 for the full control effect; potency is the fitted concentration of half-maximal effect.

Compound | lipid storage change, negative = inhibition | Potency
Cc1ccc(NC(=O)COC(=O)C2C3CC4OC(=O)C2C4C3)cc1Cl (stereo not drawn) | inconclusive: -66.1% | –
O=C(CC(=O)c1ccccc1)Nc1cccnc1 | – | inconclusive: 1.64 µM [falling, partial curve]
CN1CCS/C1=C\C=C1/SC(=S)N(CC(=O)O)C1=O | inactive: 21.7% | –
O=C(COC(=O)c1ccc(-n2cnnn2)cc1)c1ccc(Br)cc1 | inconclusive | –
Cc1cccc(OCC(=O)N/N=C/c2cn[nH]c2-c2ccc(Cl)c(Cl)c2)c1 | – | inconclusive: 29.1 µM [falling, single point]
CCCCN(CCCC)Cc1ccc(C(=O)NNC(=O)Nc2ccc(F)cc2)o1 | inconclusive: 6.48% | –
Cc1nn(C)cc1NC(=O)c1ccc(Br)o1 | – | inconclusive: 16.4 µM [activator, single point]
CCN(C(=O)c1cc(S(=O)(=O)N2CCCCC2)c[nH]1)c1ccc(OC)cc1 | inconclusive: 89.9% | –
COC(=O)c1ccc(CN2CCC(n3nccc3NC(=O)C3CCCC3)CC2)cc1 | inconclusive: 18.7% | –
CC(=O)Nc1ccc(S(=O)(=O)c2ccc([N+](=O)[O-])cc2)cc1 | inconclusive: -51.4% | –
O=C(NCc1ccco1)c1cc(-c2ccccc2)c(N2CCOCC2)s1 | – | inconclusive: 1.84 µM [activator, full curve]
COc1ccc(-c2nnc3cccc(Cl)n23)c(OC)c1 | inconclusive: -5.55% | –
O=c1[nH]c(=S)[nH]c2sccc12 | inconclusive: -20.5% | –
CCOc1ccc(S(=O)(=O)N2CCN(C(=O)CCC(=O)N3CCOCC3)CC2)cc1 | inconclusive: 6.85% | –
CC(=O)CSc1nnc(C(F)(F)F)n1C | inconclusive: -17.3% | –
CCN1C(=O)/C(=C/c2cc(C)n(C)c2C)SC1=Nc1ccc(OC)cc1 | – | inconclusive: 6.51 µM [rising, single point]
COc1ccc(-c2cc(-n3c(C(F)(F)F)nc4ccccc43)n(CCC#N)n2)cc1 | inconclusive: -1.27% | –
CN1CCC(OC(=O)Cc2ccc(Cl)cc2)CC1 | – | inconclusive: 4.61 µM [falling, single point]
CC(C)C(NC(=O)c1ccc(Cl)cc1Cl)C(=O)NCCc1ccccn1 (stereo not drawn) | inconclusive | –

Compound | lipid storage change, negative = inhibition | Potency
CCOC(=O)Cn1c(N2CCCCCC2)nc2c1c(=O)[nH]c(=O)n2C | – | inconclusive: 0.517 µM [falling, full curve]
Cc1cccc(CC(C)NC(=O)c2cc(COc3ccc(C)c(C)c3)on2)n1 (stereo not drawn) | inconclusive: -50% | –
Cn1c(C(=O)N2CCN(c3ccc(Cl)cc3)CC2)cc2c(=O)[nH]c3ccccc3c21 | inactive: -2.56% | –
COc1ccc(-c2csc3[nH]c(=S)n(-c4ccccc4)c(=O)c23)cc1OC | inconclusive: 206% | –
CCCc1cc(C(N)=O)c(NC(C)=O)s1 | inconclusive: 19.4% | –
Cc1ccc(S(=O)(=O)N2CC3(C)CN(S(=O)(=O)c4ccc(C)cc4)CC(C)(C2)C3O)cc1 (stereo not drawn) | inconclusive: 24.2% | –
N#C/C(=C\c1ccc(OCCN2CCOCC2)cc1)C(=O)Nc1ccc(S(N)(=O)=O)cc1 | – | inconclusive: 1.64 µM [activator, partial curve, poor fit]
O=C1c2ccccc2S(=O)(=O)N1CCOc1ccccc1 | inconclusive: 30.5% | –
COc1ccc(S(=O)(=O)N2CC(C)N(C(=O)N(C)C)C2C)cc1 (stereo not drawn) | – | inconclusive: 4.11 µM [falling, single point]
O=C(NC(c1ccccc1)c1ccccc1)c1ccc(Br)o1 | inconclusive: 30.5% | –
O=C(c1ccc2c(c1)OCO2)N(c1ccc(F)cc1)C1C=CS(=O)(=O)C1 (stereo not drawn) | – | inconclusive: 3.26 µM [activator, partial curve]
Cc1oc(-c2ccccc2F)nc1CN1CCC(C(=O)NCc2ccco2)CC1 | inconclusive: 19.2% | –
COc1ccccc1N1CCN(C(=O)C(=O)c2c[nH]c3ccccc23)CC1 | inconclusive: 26.8% | –
O=C1c2ccccc2C(=O)c2c(NCCCN(CCO)CCO)cccc21 | inactive: 13.2% [at 9.22 µM] | –
COc1ccc(C(=O)NN)cc1 | inactive: 1.51% | –
Cc1nc2c(sc3nc(N4CCOCC4)c4c(c32)CC(C)(C)OC4)c(-c2ccccc2)c1C(=O)O | inactive: 2.47% | –
CCOc1ccccc1NC(=O)C(OC(=O)c1ccc(CC)cc1)c1ccccc1 (stereo not drawn) | – | inconclusive: 1.64 µM [rising, full curve, poor fit]
Cc1ccccc1NC(=O)c1ccc2c(c1)OCCO2 | – | inconclusive: 7.31 µM [activator, partial curve, poor fit]
O=C(Nc1cccc(F)c1)NC1CC2CCCC(C1)N2C1CC1 (stereo not drawn) | inconclusive: 38% | –

Part of the list above in a different format.
Compound	lipid storage change, negative = inhibition	Potency
O=C(c1ccc2c(c1)OCO2)N(c1ccc(F)cc1)C1C=CS(=O)(=O)C1 (stereo not drawn)	–	inconclusive: 3.26 µM [activator, partial curve]
Cc1oc(-c2ccccc2F)nc1CN1CCC(C(=O)NCc2ccco2)CC1	inconclusive: 19.2%	–
COc1ccccc1N1CCN(C(=O)C(=O)c2c[nH]c3ccccc23)CC1	inconclusive: 26.8%	–
O=C1c2ccccc2C(=O)c2c(NCCCN(CCO)CCO)cccc21	inactive: 13.2% [at 9.22 µM]	–
COc1ccc(C(=O)NN)cc1	inactive: 1.51%	–
Cc1nc2c(sc3nc(N4CCOCC4)c4c(c32)CC(C)(C)OC4)c(-c2ccccc2)c1C(=O)O	inactive: 2.47%	–
CCOc1ccccc1NC(=O)C(OC(=O)c1ccc(CC)cc1)c1ccccc1 (stereo not drawn)	–	inconclusive: 1.64 µM [rising, full curve, poor fit]
Cc1ccccc1NC(=O)c1ccc2c(c1)OCCO2	–	inconclusive: 7.31 µM [activator, partial curve, poor fit]
